PubChem BioAssay AID504774, Drosophila RNAi Screening Center | 2011
The deposit covers about 23,000 reagents; this is a random part of those that have a named target and a result. 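Values are quantile-normalised luminescence on an arbitrary scale; higher means more cells surviving MMS.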 The numbers tell different reagents against one gene apart. Names joined by + are all predicted targets of the reagent. Further read-outs or replicates are left out here. Reagent sequences are not shown.

Test: 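Fly genes whose loss alters survival after alkylation damage to DNA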 (primary screen)
System: Drosophila Kc167 cells
Reagent: long dsRNA against Drosophila genes, about 0.25 µg dsRNA per well
Timing: about 6 days: 3 days knock-down, then 3 days with or without MMS
Conditions: methyl methanesulphonate 0.004% (w/v) for 3 days after knock-down
Detection: 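ATP-dependent luminescence as a measure of live cells in MMS-exposed wells, quantile normalised within each plate, with replicate values also given as a mean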
Direction: mean viability with MMS and viability with MMS: higher = more surviving cells after MMS

CG2246 — mean viability with MMS = 3.52e6; viability with MMS, replicate 1 = 3.87e6
CG10646 — mean viability with MMS = 1.73e6; viability with MMS, replicate 1 = 3.79e6
CG17097 — mean viability with MMS = 3.27e6; viability with MMS, replicate 1 = 3.68e6
Muc26B — mean viability with MMS = 3.72e6; viability with MMS, replicate 1 = 3.99e6
CG5254 — mean viability with MMS = 3.56e6; viability with MMS, replicate 1 = 4.06e6
Ir100a — mean viability with MMS = 3.73e6; viability with MMS, replicate 1 = 4.27e6
CG14312 — mean viability with MMS = 3.43e6; viability with MMS, replicate 1 = 3.85e6
CG12826 — mean viability with MMS = 3.42e6; viability with MMS, replicate 1 = 3.92e6
l(2)k14505 — mean viability with MMS = 3.56e6; viability with MMS, replicate 1 = 4.16e6
bon — mean viability with MMS = 3.63e6; viability with MMS, replicate 1 = 4.20e6
Cad89D — mean viability with MMS = 3.24e6; viability with MMS, replicate 1 = 3.69e6
TTLL4A — mean viability with MMS = 3.52e6; viability with MMS, replicate 1 = 3.91e6
CG17784 — mean viability with MMS = 3.54e6; viability with MMS, replicate 1 = 4.17e6
CG30413 — mean viability with MMS = 3.60e6; viability with MMS, replicate 1 = 4.15e6
Irc — mean viability with MMS = 3.54e6; viability with MMS, replicate 1 = 4.14e6
CDase — mean viability with MMS = 3.55e6; viability with MMS, replicate 1 = 4.10e6
Karl — mean viability with MMS = 3.59e6; viability with MMS, replicate 1 = 3.91e6
Cpr66D #1 — mean viability with MMS = 3.11e6; viability with MMS, replicate 1 = 3.52e6
Cpr66D #2 — mean viability with MMS = 3.22e6; viability with MMS, replicate 1 = 3.56e6
Cpr66D #3 — mean viability with MMS = 3.67e6; viability with MMS, replicate 1 = 4.16e6
CG15841 (retired record) + Acp33A — mean viability with MMS = 3.56e6; viability with MMS, replicate 1 = 4.16e6
NPFR — mean viability with MMS = 3.55e6; viability with MMS, replicate 1 = 4.06e6
zye — mean viability with MMS = 3.75e6; viability with MMS, replicate 1 = 4.24e6
Vm26Ac — mean viability with MMS = 3.58e6; viability with MMS, replicate 1 = 4.08e6
CG14480 — mean viability with MMS = 3.76e6; viability with MMS, replicate 1 = 4.37e6
AdamTS-B — mean viability with MMS = 3.71e6; viability with MMS, replicate 1 = 4.06e6
CG6733 — mean viability with MMS = 3.56e6; viability with MMS, replicate 1 = 3.90e6
CG9890 — mean viability with MMS = 3.54e6; viability with MMS, replicate 1 = 3.99e6
jv #1 — mean viability with MMS = 3.47e6; viability with MMS, replicate 1 = 4.01e6
jv #2 — mean viability with MMS = 3.79e6; viability with MMS, replicate 1 = 4.21e6
idc — mean viability with MMS = 3.43e6; viability with MMS, replicate 1 = 3.93e6
ver — mean viability with MMS = 3.52e6; viability with MMS, replicate 1 = 4.09e6
ChT — mean viability with MMS = 3.41e6; viability with MMS, replicate 1 = 3.90e6
nan — mean viability with MMS = 3.68e6; viability with MMS, replicate 1 = 4.16e6
pn — mean viability with MMS = 3.59e6; viability with MMS, replicate 1 = 4.04e6
RpL10Ab — mean viability with MMS = 3.01e6; viability with MMS, replicate 1 = 3.52e6
step #1 — mean viability with MMS = 3.44e6; viability with MMS, replicate 1 = 3.92e6
step #2 — mean viability with MMS = 3.56e6; viability with MMS, replicate 1 = 4.12e6
CG32428 #1 — mean viability with MMS = 3.33e6; viability with MMS, replicate 1 = 3.73e6
CG32428 #2 — mean viability with MMS = 3.59e6; viability with MMS, replicate 1 = 4.06e6
Miro — mean viability with MMS = 3.45e6; viability with MMS, replicate 1 = 3.96e6
Rpp30 — mean viability with MMS = 3.40e6; viability with MMS, replicate 1 = 3.67e6
mthl10 #1 — mean viability with MMS = 3.67e6; viability with MMS, replicate 1 = 4.06e6
mthl10 #2 — mean viability with MMS = 3.58e6; viability with MMS, replicate 1 = 4.06e6
CG34223 — mean viability with MMS = 3.64e6; viability with MMS, replicate 1 = 4.07e6

Not a retest: an excerpt of the list.
Miro — mean viability with MMS = 3.45e6; viability with MMS, replicate 1 = 3.96e6
Rpp30 — mean viability with MMS = 3.40e6; viability with MMS, replicate 1 = 3.67e6
mthl10 #1 — mean viability with MMS = 3.67e6; viability with MMS, replicate 1 = 4.06e6
mthl10 #2 — mean viability with MMS = 3.58e6; viability with MMS, replicate 1 = 4.06e6
CG34223 — mean viability with MMS = 3.64e6; viability with MMS, replicate 1 = 4.07e6
